PubChem BioAssay AID652272, Drosophila RNAi Screening Center – 2013
The screen tested about 21,000 reagents; below is a random part of those with a known target gene and a result. Of all reagents, 503 (2.4%) were called active. 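Raw plate light values, not normalised; calls rest on replicate z-scores that were not deposited; hits include reporter decreases as well as increases.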 Entries without a mark were called inactive. Reagents against one gene are numbered here. A plus sign joins genes that one reagent is predicted to hit. Not stated in the record: the amount of reagent, the time to read-out.

- Screen: 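Genome-wide knock-down search for components of Hedgehog signalling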 (primary screen)
- Cell system: Drosophila clone 8 (Cl8) cells
- Reagents: long dsRNA against Drosophila genes
- Read-out: 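Plate reader light from a firefly reporter under a ptc promoter fragment that responds to Hedgehog, with Renilla light as transfection reference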
- Reading the numbers: firefly Hh reporter signal: higher = more ptc reporter light; Renilla reference signal: higher = more Renilla control light
- Rule for the call: 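Called a hit if the two-replicate mean z-score lies below -2 or above +3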
- Calls: active = hit: reporter lowered or raised; inactive = not a hit

target	reagent	firefly Hh reporter signal, replicate 1	firefly Hh reporter signal, replicate 2	firefly Hh reporter signal, replicate 3	Renilla reference signal, replicate 1	Renilla reference signal, replicate 2
Adgf-D (Adenosine deaminase-related growth factor D)	1	55571	56804		1456	1600
Ude (Uracil-DNA degrading factor)	1	1.09e5	69261		4365	3057
mlt (retired record)	1	75052	34801		3808	1368
RhoGDI	1	1.14e5	87985		5098	3856
CG9577	1	1.51e5	3.61e5		5424	14272
CG7149	1	1.89e5	71696		6389	3344
Fbp2 (Fat body protein 2)	1	67160	58737		3067	2227
Patronin	1	77640	90323		1734	6360
Patronin	2	97441	42592		2933	3175
Patronin	3	83220	60480		2539	4728
Ndg (Nidogen)	1	59778	42141		2795	1980
capt (capulet)	1	1.03e5	77520		2424	2176
capt (capulet)	2	1.26e5	99037		2610	2416
Cep164 (centrosomal protein 164)	1	67520	1.76e5		2412	9239
Ir75c (Ionotropic receptor 75c)	1	87084			5115	2378
CG9864	1	74569	53452		2123	3832
Gcn5 (Gcn5 acetyltransferase)	1	67211	49220		3542	2337
RnrS (Ribonucleoside diphosphate reductase small subunit)	1	57592	77072		3030	3220
kappaB-Ras + CG30503	1	69512	63648		1812	4891
kappaB-Ras + CG30503	2	1.16e5	60704		2695	5187
EndoA (Endophilin A)	1	62422	79562		2339	2711
Timp (Tissue inhibitor of metalloproteases)	1	1.55e5	93990		5959	3634
Fer3 (48 related 3)	1	1.07e5	78240		4576	3204
CG4408	1	99521	92224		3925	3868
CR33317 (pseudo)	1	1.37e5	60893		3504	5901
CCKLR-17D1 (Cholecystokinin-like receptor at 17D1)	1	1.23e5	3.44e5		2266	13637
CCKLR-17D1 (Cholecystokinin-like receptor at 17D1)	2	84729	2.47e5		1312	9824
CCKLR-17D1 (Cholecystokinin-like receptor at 17D1)	3	62525	2.50e5		1411	10064
CG34129	1	5.57e5	97866		34977	1840
CG7246	1	4.13e5	82778		4341	4341
CG30440	1	1.28e5	3.26e5		2843	12713
CG30440	2	1.13e5	62151		2818	5350
CG30440	3	58152	40449		1593	4092
lncRNA:yar (yellow-achaete intergenic RNA)	1	6.89e5	8.63e5	2.65e5	33060	5767
CG33332	1	81089	93777		3012	2537
CG7791	1	71398	63748		2866	2384
CG13675	1	65096 (active)	86229		2876	5784
CG13675	2	16923	18229		3224	1018
lap (like-AP180)	1	1.08e5	83644		4762	3144
NTPase	1	52928	83628		2284	3163
Cpr57A + Obp57d	1	86749	49248		3968	1840
gcm2	1	82326	54240		2682	5106
CG15576	1	65489	1.44e5		2477	5776
Nrg (Neuroglian)	1	5.09e5	1.57e5		28085	3696
Nrg (Neuroglian)	2	1.16e5	1.05e5		2576	2970
CG31806	1	1.04e5	55659		2733	5351
CG13014	1	74048	1.89e5		2672	7465
CG14034	1	82859	46720		2567	4674
CG8112	1	73320	1.40e5		2939	18512
CG13725	1	4.71e5	62656		2744	2744
Cchl (Cytochrome c heme lyase)	1	1.11e5	93078		4344	3325
Acat2 (Acetyl-CoA acetyltransferase 2)	1	1.22e5	65651		4304	5670
Dcps (Decapping enzyme, scavenger)	1	1.37e5	1.18e5		5457	4662
CG6428	1	84133	1.54e5		2885	5677
Or85f (Odorant receptor 85f)	1	77648	84400		2337	2609
Gorab (Golgin, RAB6 interacting)	1	1.04e5			6771	2868
Or43b (Odorant receptor 43b)	1	72156	53069		1825	4600
